Laboratory results: PubChem BioAssay AID1159584 (Peter MacCallum Cancer Centre, 2016)
The whole screen tested about 18,000 reagents; below is a part drawn at random. Not all columns of the deposit are shown. Not given: the amount of reagent, the time to read-out.

- Assay: 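Knock-downs that harm CDH1-null cells more than parental MCF10A cells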 (primary screen)
- Cell system: human MCF10A breast epithelial cells, parental and CDH1-null
- Reagent: siRNA against human genes
- Measured: 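ATP luminescence (CellTiter-Glo) viability per line relative to mean mock wells over all plates, and the ratio of CDH1-null to parental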
- Direction: CDH1-null / parental viability ratio: higher = CDH1-null cells survive relatively better than parental

Knock-down of OGFOD3 resulted in: CDH1-null / parental viability ratio 1.11. Depletion of NAT2 (N-acetyltransferase 2) resulted in: CDH1-null / parental viability ratio 0.96. Knock-down of GANAB (glucosidase II alpha subunit) resulted in: CDH1-null / parental viability ratio 1.1. For FAM47A (family with sequence similarity 47 member A), the entry reads CDH1-null / parental viability ratio 1.09. Against KCNMB2, the values are CDH1-null / parental viability ratio 1.13. AGPAT2 (1-acylglycerol-3-phosphate O-acyltransferase 2) scored CDH1-null / parental viability ratio 0.99.

After knock-down of GOLGA8F (golgin A8 family member F), the screen gave CDH1-null / parental viability ratio 1.02. Knock-down of SLC35A2 resulted in: CDH1-null / parental viability ratio 1.21. Against MRFAP1 (Morf4 family associated protein 1), the entry reads CDH1-null / parental viability ratio 0.81. Silencing of CXCR6 (C-X-C motif chemokine receptor 6) came out at: CDH1-null / parental viability ratio 1.23. Against DLX5 (distal-less homeobox 5), the values are CDH1-null / parental viability ratio 1.06. For LINC00452 (long independently transcribed non-coding RNA 452), the values are CDH1-null / parental viability ratio 0.72.

With knock-down of DUSP15 (dual specificity phosphatase 15) the results were CDH1-null / parental viability ratio 1.21. After knock-down of DDAH2 (DDAH family member 2, ADMA-independent), the screen gave CDH1-null / parental viability ratio 0.73.

2 successive reagents from above, for reference:
MRFAP1 (Morf4 family associated protein 1) — CDH1-null / parental viability ratio = 0.81
CXCR6 (C-X-C motif chemokine receptor 6) — CDH1-null / parental viability ratio = 1.23
